The record followed here is US20210363259A1 (Biogen, published 2021).

Amino acid sequences for entries named in this document (tags omitted). A change or cut given only in a name is not applied to a line headed by its entry.
UniProt P06756: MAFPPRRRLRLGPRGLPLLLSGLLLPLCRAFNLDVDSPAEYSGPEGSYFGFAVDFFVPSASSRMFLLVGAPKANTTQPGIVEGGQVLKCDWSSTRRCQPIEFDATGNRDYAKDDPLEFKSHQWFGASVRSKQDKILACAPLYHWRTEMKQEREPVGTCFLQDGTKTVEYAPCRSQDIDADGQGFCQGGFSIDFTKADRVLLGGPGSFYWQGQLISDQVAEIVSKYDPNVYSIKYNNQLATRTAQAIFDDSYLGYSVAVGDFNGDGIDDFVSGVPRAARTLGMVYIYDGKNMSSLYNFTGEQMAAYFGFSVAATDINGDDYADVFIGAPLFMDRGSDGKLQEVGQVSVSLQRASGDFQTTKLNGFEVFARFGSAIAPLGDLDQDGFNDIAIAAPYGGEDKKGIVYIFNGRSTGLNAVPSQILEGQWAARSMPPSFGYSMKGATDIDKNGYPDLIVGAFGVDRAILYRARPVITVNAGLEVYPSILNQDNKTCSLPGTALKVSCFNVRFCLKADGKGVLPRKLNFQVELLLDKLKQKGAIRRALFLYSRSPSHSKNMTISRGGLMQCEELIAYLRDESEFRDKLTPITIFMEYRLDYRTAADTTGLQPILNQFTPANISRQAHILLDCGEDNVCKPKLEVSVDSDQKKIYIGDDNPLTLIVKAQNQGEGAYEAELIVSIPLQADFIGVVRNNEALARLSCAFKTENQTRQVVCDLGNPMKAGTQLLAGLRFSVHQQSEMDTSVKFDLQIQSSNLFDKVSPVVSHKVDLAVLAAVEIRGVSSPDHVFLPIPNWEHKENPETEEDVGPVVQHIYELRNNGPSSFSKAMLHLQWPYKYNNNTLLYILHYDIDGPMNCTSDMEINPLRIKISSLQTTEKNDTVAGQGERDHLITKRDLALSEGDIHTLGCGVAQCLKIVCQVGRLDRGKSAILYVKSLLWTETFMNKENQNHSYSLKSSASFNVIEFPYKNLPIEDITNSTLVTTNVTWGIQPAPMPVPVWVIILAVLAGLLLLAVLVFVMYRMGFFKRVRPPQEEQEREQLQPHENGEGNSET

In this assay the target is T1, integrin αvβ6 (human, UniProt P06756 31-1048; P18564 22-788).
T1 construct: also called the antigen
Description: structure-activity relationship studies on forced-oxidized STX-100.

Results are given in words; binding and its absence hold for the method and conditions named. Some entries that bind do so weakly or less than the wild type.

B1: STX-100 (antibody, human IgG1, kappa, V domains shown)
VH: EVQLVESGGGLVQPGGSLRLSCAASGFTFSRYVMSWVRQAPGKGLEWVASISSGGRMYYPDTVKGRFTISRDNAKNSLYLQMNSLRAEDTAVYYCARGSIYDGYYVFPYWGQGTLVTVSS
VL: EIVLTQSPATLSLSPGERATLSCSASSSVSSSYLYWYQQKPGQAPRLLIYSTSNLASGIPARFSGSGSGTDFTLTISSLEPEDFAVYYCHQWSTYPPTFGGGTKVEIKR
notes: Humanized human IgG1/human kappa monoclonal antibody; It was tested as drug product in citrate/arginine/methionine/PS80 formulations; also called BG00011; BG11
Take B1: the binding entry is “binds”.
